Assay results as given in PubChem BioAssay AID1794844 (National Center for Advancing Translational Sciences (NCATS), 2023).
In all, about 2,800 compounds went through this assay and fewer than 10 were called active. Another 7% or so got no clear call; they are omitted. Calls come from the whole dose curve; as a rule, active = well fitted inhibition curve with a large enough effect; inconclusive = small, poorly fitted or top-dose-only effect; inactive = no such curve, though single readings can be large or run the other way. This is one part of the list.

Chains of the proteins cited; added tags and fusions are not shown. Lines headed by an entry give the natural chain unless they say otherwise; changes in a name come on top.
UniProt C7C422: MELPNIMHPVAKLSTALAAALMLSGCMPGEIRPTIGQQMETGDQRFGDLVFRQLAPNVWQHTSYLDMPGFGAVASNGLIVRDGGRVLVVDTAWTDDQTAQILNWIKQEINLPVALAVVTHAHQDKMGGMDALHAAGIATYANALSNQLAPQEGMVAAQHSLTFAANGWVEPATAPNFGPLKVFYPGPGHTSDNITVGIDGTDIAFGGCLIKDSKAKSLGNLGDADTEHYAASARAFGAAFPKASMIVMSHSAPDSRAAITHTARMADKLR

What follows are molecules tested against Metallo-beta-lactamase type 2 (Klebsiella pneumoniae) (UniProt C7C422) (assay: qHTS to identify inhibitors of the New Delhi Metallo-beta-lactamase (NDM): Nitrocefin screen against the machine-based learning selections.). Settings: NDM-1 enzyme, nitrocefin hydrolysis, absorbance 485 nm; activity, negative = inhibition: at the top concentration.
Method in brief: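 Hydrolysis by 2 nM NDM-1 was followed by absorbance after >30 min compound preincubation in HEPES pH 7.0 buffer with 1 uM Zn2SO4. For nitrocefin (16.7 uM, 15 min, 485 nm) and meropenem (50 uM, 30 min, 300 nm), each substrate ran on separate plates.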
Note: % of control where 0% means no effect.

activity, negative = inhibition, inactive:
O=C1Cc2c(-c3cccc(CO)c3)n[nH]c2CN1c1ccccc1 -4.56% [at 57.5 µM]
COc1ccc(CC(=O)N2CCC(N3CC4CC(C3)[C@H]3CCCC(=O)N3C4)CC2)cc1 (some centres undefined) -4.99%
COCCn1c(CO)nnc1C1CC(NC(=O)c2ccc(F)cc2F)C1 (centres undefined) 344%
COCCN1C(=O)[C@@H]2C[C@@H](CN2Cc2ccc(OC)nc2)Oc2ccccc21 -2.4% [at 57.5 µM]
COc1cccc2c1OCC(C(=O)N1CC(Oc3ccccc3C)C1)C2 (centres undefined) -2.13%
Cn1ccc2c(C(=O)NCCc3cnc[nH]3)nc(-c3ccc([S+](C)(=O)[O-])cc3)cc21 -9.99% [at 57.5 µM]
OC[C@H]1C[C@@H](NCc2cccc3c2OCO3)[C@H](O)[C@@H]1O -16.7% [at 76.7 µM]
COc1cccc(CN2CCOC[C@H](Oc3cccnc3)C2)c1 1.9% [at 57.5 µM]
O=c1c2nc(-c3ccc(O)c(F)c3)ccc2ncn1-c1ccc(F)cc1F 0.349% [at 57.5 µM]
CO[C@H]1[C@H](NC(=O)COc2ccccc2)c2ccccc2C12CCNCC2 -11.8%
COc1ccc([C@H]2C[C@@H](O)[C@@H](O)[C@@H]2NC(=O)C2CCC2)cc1 2.58% [at 57.5 µM]
Cc1ccc(CN2C(=O)[C@@H]3C[C@@H](O)CN3C3(CN(C4Cc5ccccc5C4)C3)C2=O)o1 -4.44% [at 57.5 µM]
CC(=O)N1C[C@@H]2CCCN3CCC[C@@H]([C@H]23)[C@H]1CCCC(=O)N(C)Cc1ccc(N2CCOCC2)cc1 0.217%
O=C(O)Cn1ccc2cc(OCc3cccc(-c4ccc(F)cc4F)c3)cnc21 -2.25% [at 57.5 µM]
Cc1noc(C)c1C(=O)N[C@H]1[C@H](O)[C@H](O)C[C@@H]1c1cccnc1 1.22% [at 57.5 µM]
COCCC1(NS(C)(=O)=O)CCN(C(=O)c2cccc(C#N)c2)CC1 0.573%
O=C(c1ccoc1)N1CCCC(CCc2ccc(F)c(F)c2)C1 (centres undefined) -0.0995%
Cn1cc(CN2CCOC[C@H]2c2nc(C(C)(C)C)co2)c2ccccc21 -0.956% [at 57.5 µM]
O=C(N[C@H](c1ccccn1)C1CC(O)C1)c1ccc2c(c1)ncn2CCO (some centres undefined) 5.03%
CCN1c2cc(C(=O)Nc3ccc(C)c(C)c3)ccc2C(=O)N2CCCCC21 (centres undefined) 0.646%
CO[C@@H]1CO[C@H]2[C@@H]1OC[C@@H]2NC(=O)Nc1cccc(C(F)(F)F)c1 10.1% [at 57.5 µM]
Cc1nn(-c2ccccc2)nc1C(=O)N[C@H](C)c1onc(-c2cccnc2)c1C(=O)O -11.3%
Cc1cc(C)n2ncc(CN3CCCC3c3nc(-c4ccncc4)no3)c2n1 (centres undefined) -3.22%
O=C(O)C[C@@H]1CCN(C(=O)C2CCCC2)C[C@@H]1CCN1CCN(c2ccccn2)CC1 -8.42% [at 57.5 µM]
O=C1NC[C@@H](CCC(=O)N2CCCC2)N2C[C@@H](NCc3cccc(Cl)c3)C[C@@H]12 0.771% [at 57.5 µM]
CCCN(C)c1nccnc1OC1CCN(C(=O)c2ccc(OC)nc2OC)C1 (centres undefined) -7.38%
CC(=O)N1CCN(C(=O)C[C@@H]2CCNC[C@@H]2Cc2cc(-c3ccccc3)on2)CC1 5.04% [at 57.5 µM]
O=C(NCc1ccccc1F)C1CCN(C(=O)c2ncn3c2COC(c2ccccc2)C3)CC1 (centres undefined) 0.463%
Cc1cc(CNC(=O)[C@@H]2CCC[C@@H](NCc3nccs3)CN(C)C(=O)C2)no1 1.41% [at 57.5 µM]
O=C(O)C[C@@H]1CCN(C(=O)C2CCCCC2)C[C@@H]1CCN1CCOCC1 -23.9% [at 57.5 µM]
O=C(CC[C@@H]1CNC(=O)[C@@H]2C[C@H](NC(=O)Nc3ccsc3)CN12)NCc1cccs1 -10.4%
CCCn1cc(S(=O)(=O)N2C[C@H](C3CC3)[C@@H](N)C2)cn1 -1.58%
O=C(O)c1ccc(CC2CCN(Cc3ccncc3)C2)cc1 (centres undefined) -1.88%
COc1ccc(C(=O)N[C@@H]2CCC[C@@H]2C(=O)N2CCN(C(=O)c3ccco3)CC2)cn1 -4.54%
OCC1CN(Cc2cccnc2)CCC12CCN(Cc1cccc(O)c1)CC2 (centres undefined) 10.4%
Cc1cc(C(=O)NCCc2csc(-c3cccnc3)n2)cc(S(N)(=O)=O)c1C 340%
CCOc1ccc(NC(=O)Cn2c(N3CCc4ccccc4C3)nc(C)cc2=O)cc1 0.401%
O=C(NCc1nc(-c2cnccn2)n[nH]1)[C@H]1CNC[C@H](C(=O)N2CCOCC2)C1 -7.62%
COc1ccccc1CNC(=O)c1c(OCC(C)C)cc(=O)n2c1CCCCC2 3.75%
Cc1ccc(C2Cn3nnc(-c4noc(-c5ccncc5)n4)c3CO2)cc1 (centres undefined) -1.26%
O=C(Cc1ccccc1O)NCc1cccnc1Oc1ccc(F)cc1F 3.43%
CN1CCN(S(=O)(=O)c2cccc(C(=O)N3C[C@@H]4CCN[C@@H]4C3)c2)CC1 -7.19%
COc1ccc(CN2CCNc3cc(-c4ccccc4)ncc3C2)cc1O -12.7% [at 57.5 µM]
COc1ccc(CCC(=O)N2CCC(N3CC4CC(C3)[C@H]3CCCC(=O)N3C4)CC2)cc1 (some centres undefined) 1.84%
CC1=C[C@@H](CNCc2ccncc2)[C@H](C(C)C)C[C@H]1Cc1nnc(-c2ccc([N+](=O)[O-])cc2)o1 -2.19%
Cc1cccc(-c2noc([C@@H]3Cc4nc[nH]c4CN3C(=O)COCC(=O)O)n2)c1 6.01% [at 57.5 µM]
CC(=O)N1CCC(N[C@H]2C[C@@H](Cc3cc(CN(C)C)on3)C2(C)C)CC1 -7.61% [at 57.5 µM]
COc1ccccc1CN1CCC2(CC1)CC(C(=O)O)N(C(C)=O)C2 (centres undefined) -1.38%
Cc1ccc2c(c1)N1C(=O)OC[C@@H]1CCN(C(=O)NC1CCCCC1)C2 -2.65% [at 57.5 µM]
CC(Cn1cncn1)NC(=O)c1ccc(S(=O)(=O)NCCO)cc1 (centres undefined) -2.99%
CC(=O)N1CCC(N[C@H]2CC(C)(C)[C@@H]3C[C@@](C)(O)CC[C@]23CCC(=O)NCCN2CCOCC2)CC1 2.2%
CC(C)N1C[C@H](O)C[C@H]1c1nc(-c2ccc(C(F)(F)F)cc2)no1 -6.71% [at 57.5 µM]
COCC(=O)Nc1ccc([C@H]2OCC(=O)N(CC(C)C)[C@@H]2CO)cc1 1.61% [at 57.5 µM]
CC1=C[C@@H](CNCc2ccncc2)[C@H](C(C)C)C[C@H]1Cc1nnc(-c2ccc(C)cc2)o1 6.34% [at 57.5 µM]
COc1ccc(NC(=O)N[C@H]2CO[C@H]3[C@@H]2OC[C@@H]3n2cc(CN(C)Cc3ccccc3)nn2)cc1 0.93%
CNc1ccc(-c2noc([C@@H]3CCCN3Cc3cccnc3)n2)cn1 1.06% [at 57.5 µM]
CS(=O)(=O)NC[C@H]1O[C@@H](CC(=O)N2CCN(c3ccccn3)CC2)[C@H](O)[C@@H]1O -1.35% [at 57.5 µM]
CCCCC(=O)Nc1ccc(C)cc1NC(=O)COc1cccnc1 2.21%
COc1ccc(NC(=O)NCC2CCCN(C(C)C)C2)cc1OC (centres undefined) -0.609%

Ordered by molar mass (low to high): some entries from above
activity, negative = inhibition, inactive:
CC(=O)N1CCC(N[C@H]2C[C@@H](Cc3cc(CN(C)C)on3)C2(C)C)CC1 -7.61% [at 57.5 µM]
COc1ccc(C(=O)N[C@@H]2CCC[C@@H]2C(=O)N2CCN(C(=O)c3ccco3)CC2)cn1 -4.54%
O=C(CC[C@@H]1CNC(=O)[C@@H]2C[C@H](NC(=O)Nc3ccsc3)CN12)NCc1cccs1 -10.4%
